Measurements as given in paper PMC4346919.
These are yes or no findings as the source states them, for the method shown. Some binding calls cover weakened binding; strength is not graded here. Tags and fused reporters may be left off the sequences shown.

By UniProt entry, the sequences of proteins in these tests, tags left out. Where a name states a change or a piece, a line headed by the entry shows the natural chain unless it says otherwise.
UniProt Q9NRY6: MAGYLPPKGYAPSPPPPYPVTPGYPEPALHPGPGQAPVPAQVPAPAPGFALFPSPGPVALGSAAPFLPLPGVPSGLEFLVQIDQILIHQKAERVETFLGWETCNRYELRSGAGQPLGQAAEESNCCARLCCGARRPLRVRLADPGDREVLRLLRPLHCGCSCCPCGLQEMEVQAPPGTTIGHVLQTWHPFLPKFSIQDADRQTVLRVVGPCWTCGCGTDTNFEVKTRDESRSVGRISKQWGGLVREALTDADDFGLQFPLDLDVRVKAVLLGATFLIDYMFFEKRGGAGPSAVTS
UniProt O75340: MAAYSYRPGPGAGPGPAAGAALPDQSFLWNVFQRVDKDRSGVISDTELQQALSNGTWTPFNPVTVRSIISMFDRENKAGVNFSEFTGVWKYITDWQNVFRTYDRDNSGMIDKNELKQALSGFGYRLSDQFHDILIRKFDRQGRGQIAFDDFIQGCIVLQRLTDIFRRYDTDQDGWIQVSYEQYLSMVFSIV

Columns and labels:
Assay in all cases: far-Western, overlay or dot blot; purified GST-fused peptides resolved by SDS-PAGE, transferred to PVDF membranes and probed with biotin-labeled ALG-2; chemiluminescence, quantified with ImageJ; both purified
[1] = target: T1, GST-fused Sec31A 8-residue peptide F7A (human)
T1 sequence: NPPPPGAI

[2] = target: T2, GST-fused Sec31A 8-residue peptide G6L (human)
T2 sequence: NPPPPLFI

[3] = target: T3, GST-fused PLSCR3 peptide, 12 aa (43–54) (UniProt Q9NRY6)
T3 sequence: PAPAPGFALFPS

[4] = target: T4, GST-fused Sec31A 8-residue peptide I8A (human)
T4 sequence: NPPPPGFA

[5] = target: T5, GST-fused Sec31A 8-residue peptide P3A (human)
T5 sequence: NPAPPGFI

- binding [1]: binds weakly
- binding [2]: binds weakly
- binding [3]: binds
- binding [4]: binds weakly
- binding [5]: binds weakly
Substance: biotin-labeled ALG-2 (from UniProt O75340 1-191)
